Measurements reported in PubChem BioAssay AID1508597 (Cure First, 2020)

Assay: 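Survival screen with siRNA in ovarian cancer cells derived from patients, with or without rucaparib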 (primary screen)
System: human ovarian carcinoma lines grown from tumours: OCI-P5x (papillary serous) and OCI-C5x (clear cell)
Knock-down reagent: siRNA pool against human genes, 1.25 pmol siRNA per well
Time to read-out: 72 h or 96 h, depending on the cell culture
Conditions: rucaparib 20 µM (about IC30) or vehicle, present until read-out
Rucaparib or vehicle: Vehicle
Cell line: OCI-P5x (serous)
Read-out: 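Luminescent ATP-based viability assay read 72 or 96 h after transfection, depending on culture, given as normalised percent viability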
Reading the numbers: viability, normalised: higher = more viable cells remaining
Active means: 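a well counts as a hit if its normalised viability is under 80 percent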
Meaning of the calls: active = viability under 80%; inactive = viability 80% or more
This is a random part of the about 2,100 reagents, under one of the conditions tested. 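Calls flag viability under 80% in either arm, not effects specific to rucaparib; the reference for percent is not stated.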 A number with no mark means an inactive call. The record does not give: the 100% reference.

gene symbol	PubChem SID	technical replicate	viability, normalised (%)
TRMT112	SID405526588	1	50.7 (active)
TRMT112	SID405526588	2	72.3 (active)
TRMT112	SID405526588	3	70.4 (active)
BAHD1	SID405528011	1	76.1 (active)
BAHD1	SID405528011	2	95.7
BAHD1	SID405528011	3	83
PRKACB	SID405527834	1	87
PRKACB	SID405527834	2	82.7
PRKACB	SID405527834	3	61.9 (active)
GDPD2	SID405526675	1	91.4
GDPD2	SID405526675	2	84.2
GDPD2	SID405526675	3	104
KMT5A	SID405527287	1	40.5 (active)
KMT5A	SID405527287	2	60.4 (active)
KMT5A	SID405527287	3	66 (active)
STK35	SID405528555	1	75.2 (active)
STK35	SID405528555	2	62.9 (active)
STK35	SID405528555	3	63.5 (active)

No new results follow: entries from further up.
gene symbol	PubChem SID	technical replicate	viability, normalised (%)
BAHD1	SID405528011	2	95.7
BAHD1	SID405528011	3	83

Next entries follow:
gene symbol	PubChem SID	technical replicate	viability, normalised (%)
ACE	SID405527941	1	48.2 (active)
ACE	SID405527941	2	51.5 (active)
ACE	SID405527941	3	46.5 (active)
TIMM50	SID405526561	1	63.4 (active)
TIMM50	SID405526561	2	51.4 (active)
TIMM50	SID405526561	3	69.6 (active)
LEF1	SID405526953	1	46.8 (active)
LEF1	SID405526953	2	65.5 (active)
LEF1	SID405526953	3	77.3 (active)
PHKB	SID405527797	1	73.2 (active)
PHKB	SID405527797	2	55 (active)
PHKB	SID405527797	3	60.4 (active)
DMC1	SID405528290	1	78.8 (active)
DMC1	SID405528290	2	77.8 (active)
DMC1	SID405528290	3	66.1 (active)
SMARCD1	SID405527334	1	57.7 (active)
SMARCD1	SID405527334	2	71.4 (active)
SMARCD1	SID405527334	3	60.1 (active)
HSPA5	SID405528460	1	70.2 (active)
HSPA5	SID405528460	2	65.6 (active)
HSPA5	SID405528460	3	74 (active)
